The results in this text go back to PMC10163288.

This is one part of the list.

B1: il10ra_site1_normal_mot_HHH_b1_05088_af2_000000046_0001_20_36_H_._HHH_b2_02810_0001_0000200011_0000002_0 (protein)
chain: SSSSDEEVREEVERLLEEAKEIEDAEEAYKALRRAIELAAENQDKELLELILRVIREWLNSSSSS
B2: il10ra_site1_normal_mot_HHH_b2_04680_000000215_0001_1_16_H_._HHH_b1_03111_0001_0000500024_0000001_1 (protein)
chain: SSSSSSDEREAYELIRRAFEIEDPEEARELLREALELAEEAGNFALRFAIRQLLRQLESSSSSSS
B3: il10ra_site1_sap_18_mot_HHH_b1_01481_000000287_0001_1_20_H_._HHH_b2_00170_0001_0000300039_0000001_0_0001 (protein)
chain: SSSSSQEEELVEAAIRMLEQAFKWGDPERAKAMFWAARFVAEEINDDELRREIEEVYEELSSSSS
B4: il10ra_site1_sap_16_mot_HHH_b2_07873_af2_000000172_0001_1_19_H_._HHH_b1_07132_0001_0000300020_0000001_0_0001 (protein)
chain: SSSSDATHEVYKLSRRVMELLAEGNKEEAEELLEEIRELVEEAGSQVMEFILELLKRAIEHSSSS
B5: il10ra_site1_sap_21_mot_HHH_b2_04679_000000194_0001_21_38_H_._HHH_b2_04966_0001_0000200027_0000001_0_0001 (protein)
chain: SSSSSDNHEIYRLSREALELFANGNPEEAEKVLEEAERLAEELGNRVLLFALRRLARAVNSSSSS
B6: il10ra_site1_normal_mot_HHH_b2_03328_af2_000000127_0001_1_19_H_._HHH_b1_02422_0001_0000200014_0000002_0 (protein)
chain: SSSDVEERVKELLERIEEAVEEGDARKLYELSRLIAELAFEYNNPEANRVLREAAELVARRLSSS
B7: il10ra_site1_sap_18_mot_ems_3hM_3073_000000042_0001_1_18_H_._HHH_b1_01029_0001_0000100003_0000002_0_0001 (protein)
chain: SSSDENQRALELSQKAFRLALRGNPEEAREVLEEALELAEEGGNERLAEQIRILLETLEAGSSSS
B8: il10ra_site1_normal_mot_HHH_b1_02809_af2_000000277_0001_40_57_H_._HHH_b2_07759_af2_0001_0000200012_0000002_0 (protein)
chain: SSSSSSEDEKYIELALKFARALEDKEAARLLARAALEIARRAGDEELFEKVEEFLEELNSSSSSS
B9: il10ra_site1_sap_22_mot_HHH_b1_07527_000000076_0001_1_15_H_._HHH_b1_07772_0001_0000100002_0000002_0_0001 (protein)
chain: SSSSSDRRQEVLRLSLRAFRLALRGNPEEAKEVLEEALELAEEGNDERLFEMLRRLLETLSSSSS
B10: il10ra_site1_sap_18_mot_HHH_b1_01975_000000257_0001_1_17_H_._HHH_b1_07669_af2_0001_0000400016_0000002_0_0001_af2pred_0001 (protein)
chain: SSSSDDQEKALERLLRAAKELLERGNPEFAKRALRFAEHAAKAANDHELLEEIRELLEEVTSSSS
B11: il10ra_site1_normal_mot_HHH_b2_06979_000000158_0001_42_57_H_._HHH_b1_03932_af2_0001_0000300016_0000002_1_af2pred_0001 (protein)
chain: SSSSSREELIRRAFELIKRAAEISDEEEVERLLEEARELAEEAGNEELVRAIEFREKALLSSSSS
B12: il10ra_site1_normal_mot_HHH_b1_00682_000000211_0001_1_20_H_._HHH_b2_01840_0001_0000100011_0000002_0 (protein)
chain: SSSSDVEERVEELLEQARELLEKGNPDEAYKLLREAVELASERNDPELQRLVVEVSRELFSSSSS
B13: il10ra_site1_normal_mot_HHH_b1_02708_af2_000000019_0001_23_39_H_._HHH_b2_02879_af2_0001_0000400016_0000002_0_af2pred_0001 (protein)
chain: SSSSNEEREVARLLLRVIELYANGNPEEAKEVLKEAEELAEELGDEELRRAVEIVKRFVENSSSS
B14: il10ra_site1_sap_28_mot_HHH_b2_07006_000000108_0001_1_19_H_._HHH_b2_00906_0001_0000300042_0000001_0_0001_af2pred_0001 (protein)
chain: SSSSDEEELEEIARKIVEELEKEYNLSEEERKLLELLARLAVLAGASPERIEKSLRAAARGSSSS
B15: il10ra_site1_normal_mot_HHH_b1_04065_000000255_0001_41_56_H_._HHH_b2_02179_0001_0000400021_0000001_0 (protein)
chain: SSSSSEHREEVERLLEEAEESDDPREVAQLLFEALRRAWEARDPELLKEVLQVAIELQHLLSSSS
B16: il10ra_site1_normal_mot_HHH_b2_04275_000000272_0001_20_36_H_._HHH_b1_00803_af2_0001_0000600054_0000001_0 (protein)
chain: SSSSDESQRVYELLRRASEAEHEGNPEEAEELLEEAEKLAEELNNHVLLATIRFLLKLINSSSSS
B17: il10ra_site1_sap_18_mot_HHH_b2_03220_af2_000000223_0001_23_40_H_._HHH_b2_05553_0001_0000200016_0000001_0_0001 (protein)
chain: SSSSSLAERVQELSREAVELDHEGNPEEAEELLEEAEEIAREANNDVLLMQVEYLLRHVGSSSSS
B18: il10ra_site1_normal_mot_HHH_b2_00475_000000107_0001_44_57_H_._HHH_b1_06647_af2_0001_0000400020_0000002_0 (protein)
chain: SSSSEEREVVELIFRAVRLLANGNPEEAEKVLERAEELAKELNDEELQRYVEIALHFVRSHSSSS

The experiment concerns the target il10ra, Q13651. Nature of the experiment: yeast display titration.
B1: the “apparent Kd” value was “inactive: no binding seen”. Take B2: the “apparent Kd” value is “inactive: no binding seen”. As for B3, the “apparent Kd” value is “inactive: no binding seen”. Next, B4: “inactive: no binding seen”. On to B5, for which the “apparent Kd” value was “inactive: no binding seen”. The result for B6 reads “inactive: no binding seen”; that for B7, “inactive: no binding seen”; that for B8, “inactive: no binding seen”. With B9, the “apparent Kd” value is “inactive: no binding seen”. For B10, the “apparent Kd” value is “inactive: no binding seen”. Take B11: the “apparent Kd” value was “inactive: no binding seen”. Turning to B12, the “apparent Kd” value was “inactive: no binding seen”.

With B13, the “apparent Kd” value was “inactive: no binding seen”. With B14, the “apparent Kd” value is “inactive: no binding seen”. As to B15, the “apparent Kd” value was “inactive: no binding seen”. As to B16, the “apparent Kd” value was “inactive: no binding seen”. Take B17: the “apparent Kd” value is “inactive: no binding seen”.

Take B18: the “apparent Kd” value is “inactive: no binding seen”.
